Assay results from article PMC8799692.
No constants are given. Whether binding was seen depends on the method and setting. In cells and extracts the contact can be indirect. Binding can be weak; no strength is given. For part of these data: Sequences can lack the tags named with a protein.

Sequences of proteins named here, by UniProt entry; tags and fusion partners are left off. A change or cut given only in a name is not applied to a line headed by its entry. Residues count along the entry.
UniProt P15056: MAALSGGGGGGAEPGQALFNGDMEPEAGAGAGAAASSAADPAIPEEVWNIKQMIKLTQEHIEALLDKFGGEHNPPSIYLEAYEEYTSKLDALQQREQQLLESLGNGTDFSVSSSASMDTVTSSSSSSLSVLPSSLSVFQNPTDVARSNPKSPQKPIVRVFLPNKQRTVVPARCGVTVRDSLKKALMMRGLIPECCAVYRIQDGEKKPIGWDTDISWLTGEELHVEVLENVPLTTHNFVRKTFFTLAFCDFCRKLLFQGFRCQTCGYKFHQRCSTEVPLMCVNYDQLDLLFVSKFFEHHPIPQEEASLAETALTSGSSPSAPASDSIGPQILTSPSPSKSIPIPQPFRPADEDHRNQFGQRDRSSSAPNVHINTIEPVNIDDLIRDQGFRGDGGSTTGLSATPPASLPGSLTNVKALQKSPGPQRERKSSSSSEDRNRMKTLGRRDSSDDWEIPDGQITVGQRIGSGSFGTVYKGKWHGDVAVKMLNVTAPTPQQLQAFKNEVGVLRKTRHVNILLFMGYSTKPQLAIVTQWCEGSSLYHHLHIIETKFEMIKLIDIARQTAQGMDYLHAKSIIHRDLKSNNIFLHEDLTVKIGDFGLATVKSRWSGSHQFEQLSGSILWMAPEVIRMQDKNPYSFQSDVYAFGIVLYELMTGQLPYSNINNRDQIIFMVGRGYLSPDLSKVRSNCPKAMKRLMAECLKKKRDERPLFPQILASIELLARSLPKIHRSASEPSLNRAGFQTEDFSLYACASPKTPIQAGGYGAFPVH
flag-Cter-BRAF: residues 457-717 of P15056
UniProt P28028: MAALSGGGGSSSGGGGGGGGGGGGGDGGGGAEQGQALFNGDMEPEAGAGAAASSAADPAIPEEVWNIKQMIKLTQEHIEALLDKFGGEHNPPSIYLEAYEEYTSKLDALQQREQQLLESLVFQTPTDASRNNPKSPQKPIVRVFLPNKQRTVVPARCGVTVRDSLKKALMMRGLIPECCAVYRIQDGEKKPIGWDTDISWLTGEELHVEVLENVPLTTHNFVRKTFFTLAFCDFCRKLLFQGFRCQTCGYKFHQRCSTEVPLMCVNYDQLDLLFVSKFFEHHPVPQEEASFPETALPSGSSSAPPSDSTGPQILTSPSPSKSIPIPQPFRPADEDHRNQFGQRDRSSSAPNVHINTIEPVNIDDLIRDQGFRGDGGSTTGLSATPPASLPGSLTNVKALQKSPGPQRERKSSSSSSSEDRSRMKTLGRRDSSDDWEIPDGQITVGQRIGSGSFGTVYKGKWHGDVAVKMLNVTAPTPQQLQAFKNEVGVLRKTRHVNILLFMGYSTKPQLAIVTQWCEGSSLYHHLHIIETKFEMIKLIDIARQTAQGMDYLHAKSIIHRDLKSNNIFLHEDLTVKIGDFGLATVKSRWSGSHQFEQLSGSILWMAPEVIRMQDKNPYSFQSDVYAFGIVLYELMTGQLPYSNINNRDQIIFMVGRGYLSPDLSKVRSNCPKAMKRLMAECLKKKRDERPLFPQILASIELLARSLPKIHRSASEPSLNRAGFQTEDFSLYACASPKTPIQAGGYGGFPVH

What was measured:
myc-BRAF^V600E = myc-BRAF^V600E (UniProt P15056); experiment: co-IP; HEK293T cotransfected with tagged MITF and one tagged RAF construct; NP40 buffer lysates precipitated overnight at 4 °C with anti-HA, anti-Flag or anti-Myc and protein-G magnetic beads
myc-BRAF^WT = myc-BRAF^WT (UniProt P15056); experiment: as above
[1] = biological target: T1, ARAF (mouse (endogenous in NRAS-mutated murine melanoma cells)) (UniProt P04627); experiment: proximity ligation; Duolink PLA on fixed, permeabilized NRAS-mutated murine melanoma cells (ARAF-only cells for ARAF/MITF), antibodies against the endogenous RAF protein and MITF
T1 sequence: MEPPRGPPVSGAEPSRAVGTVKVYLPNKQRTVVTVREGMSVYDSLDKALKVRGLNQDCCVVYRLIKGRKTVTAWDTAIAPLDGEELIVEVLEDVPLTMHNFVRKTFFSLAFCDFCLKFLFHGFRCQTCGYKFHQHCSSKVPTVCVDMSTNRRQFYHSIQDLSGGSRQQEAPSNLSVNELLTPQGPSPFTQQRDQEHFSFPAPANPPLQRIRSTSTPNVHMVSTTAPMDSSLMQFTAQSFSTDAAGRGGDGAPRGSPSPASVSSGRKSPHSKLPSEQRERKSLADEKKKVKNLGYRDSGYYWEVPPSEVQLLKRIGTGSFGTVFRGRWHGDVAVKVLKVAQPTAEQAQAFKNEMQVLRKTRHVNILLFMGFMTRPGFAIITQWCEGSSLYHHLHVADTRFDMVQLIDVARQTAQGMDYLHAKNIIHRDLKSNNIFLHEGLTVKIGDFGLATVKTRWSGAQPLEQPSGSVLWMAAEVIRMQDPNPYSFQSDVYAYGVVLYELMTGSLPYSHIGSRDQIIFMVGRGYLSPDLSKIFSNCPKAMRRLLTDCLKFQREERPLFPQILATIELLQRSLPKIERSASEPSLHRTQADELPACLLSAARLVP

[2] = biological target: BRAF (mouse (endogenous in NRAS-mutated murine melanoma cells)) (UniProt P28028); experiment: as above
[3] = biological target: CRAF (mouse (endogenous in NRAS-mutated murine melanoma cells)) (UniProt Q99N57); experiment: as above
[4] = biological target: T1, ARAF (mouse (endogenous in NRAS-mutated murine melanoma cells)); experiment: co-IP; endogenous proteins; ARAF-only mouse melanoma cell lysates incubated overnight at 4 °C with anti-ARAF antibody and protein-A magnetic beads; blot with anti-MITF
[5] = biological target: T2, human recombinant flag-ARAF (human) (UniProt P10398); experiment: co-IP; in vitro: 15 ng human recombinant MITF incubated overnight at 4 °C in NP40 Buffer with 75 ng human recombinant flag-ARAF and anti-flag magnetic beads; both purified
T2 sequence: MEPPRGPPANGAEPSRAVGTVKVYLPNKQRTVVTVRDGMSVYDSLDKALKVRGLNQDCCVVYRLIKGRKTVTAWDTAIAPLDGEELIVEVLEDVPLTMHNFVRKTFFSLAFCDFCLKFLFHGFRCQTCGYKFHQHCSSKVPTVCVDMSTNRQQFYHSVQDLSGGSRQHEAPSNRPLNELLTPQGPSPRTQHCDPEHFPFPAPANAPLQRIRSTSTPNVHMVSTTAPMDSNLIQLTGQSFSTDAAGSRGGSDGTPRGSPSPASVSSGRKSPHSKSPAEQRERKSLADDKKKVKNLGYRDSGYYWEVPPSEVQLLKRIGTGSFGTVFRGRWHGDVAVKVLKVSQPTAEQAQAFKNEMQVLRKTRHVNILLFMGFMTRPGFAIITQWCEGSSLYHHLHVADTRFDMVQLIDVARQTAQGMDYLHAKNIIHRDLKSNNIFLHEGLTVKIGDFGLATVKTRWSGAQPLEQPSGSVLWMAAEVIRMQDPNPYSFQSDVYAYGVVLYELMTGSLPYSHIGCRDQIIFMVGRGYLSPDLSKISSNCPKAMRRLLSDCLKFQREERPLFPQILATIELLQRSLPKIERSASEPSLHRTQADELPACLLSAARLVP

flag-Cter-BRAF [6] = biological target: flag-Cter-BRAF (UniProt P15056); experiment: co-IP; HEK293T cotransfected with myc-MITF and both HA-Nter-BRAF and flag-Cter-BRAF; lysates precipitated with anti-flag or anti-HA
HA-CRAF = HA-CRAF (UniProt P04049); experiment: co-IP; HEK293T cotransfected with tagged MITF and one tagged RAF construct; NP40 buffer lysates precipitated overnight at 4 °C with anti-HA, anti-Flag or anti-Myc and protein-G magnetic beads
HA-BRAF = HA-BRAF (UniProt P15056); experiment: as above
HA-ARAF = biological target: T3, HA-ARAF (UniProt P10398); experiment: as above
T3 sequence: T2 sequence

flag-Cter-BRAF [7] = biological target: flag-Cter-BRAF (UniProt P15056); experiment: as above

Measured: binding

HA-MITF (from UniProt O75030-9)
binds: myc-BRAF^V600E | myc-BRAF^WT

Microphtalmia-associated transcription factor (MITF) (from UniProt Q08874-8)
binds: [1] | [2] | [3] | [4]

human recombinant MITF protein
binds: [5]

myc-MITF (from UniProt O75030-9)
binds: flag-Cter-BRAF [6] | HA-CRAF | HA-BRAF | HA-ARAF | flag-Cter-BRAF [7]
